Literature values as cited in patent US6406853B1, “Interventions to mimic the effects of calorie restriction” (The Regents of the University of California, priority 1999, dated 2002).
Some results were stated once for a whole list of compounds, not compound by compound.

Tested on: protein synthesis in the liver
Conditions: fasted mice; dose used in the study; cited from earlier work

C[C@@H]1C[C@@H]([C@H](O)CC2CC(=O)NC(=O)C2)C(=O)[C@@H](C)C1 [cycloheximide]
inhibition of protein synthesis in the liver: greater than 95%
